Measured values from PubChem BioAssay AID540256 (National Center for Advancing Translational Sciences (NCATS), 2011).
“And” between values parts separate entries of the source, which are not always exact repeats. Identical values can stand only once. Screen size: about 300,000 compounds; about 3,700 (1.2%) were called active. Inconclusive results, whose numbers are uncertain, are shown with a selection of clear calls. Calls follow the shape of the full dose curve; tested in HEK293 cells. Where the call is inconclusive, the potency comes from a doubtful curve fit.

Assay: qHTS for Inhibitors of binding or entry into cells for Lassa Virus; also: nearly all actives have a fitted effect of over 50% in size
Conditions: Lassa virus pseudotype entry inhibition, cell reporter; activity change, negative = inhibition: at 37.9 µM (top of the series) unless noted
% is scaled to controls: 0 for no effect and ±100 for the full control effect; potency is read from the fitted curve at half-maximal effect.

Row | Structure (SMILES) | Potency | activity change, negative = inhibition
1 | Cc1cccc(-n2c(C)nc3cc(C(=O)N4CCC5(CC4)OCCO5)ccc32)c1 | inconclusive: 18.3 µM [inhibitor, partial curve, poor fit] | 
2 | CCOC(=O)c1c(C)oc2nc(C)nc(NCC3CCN(Cc4cccc(C)c4)CC3)c12 | inconclusive: 35.5 µM [activator, single point] | 
3 | O=C(NNC(=O)c1ccccc1F)c1ccc2nc[nH]c2c1 | inconclusive: 20 µM [activator, single point] | 
4 | C/C(=N\NC(=O)CC#N)c1cc2ccccc2oc1=O |  | inactive: 1.99%
5 | Cc1ccc(C2=NC(C(F)(F)F)(C(F)(F)F)c3c(n(-c4ccc(F)cc4)c(=O)[nH]c3=O)N2)cc1 | inconclusive: 17.8 µM [inhibitor, single point] | 
6 | O=C1CC(c2ccc(Cl)cc2)c2c(O)cc(O)cc2O1 (stereo unspecified) | inconclusive: 1.58 µM [activator, partial curve, poor fit] | 
7 | CCN(CC)c1ccc(C=C(c2nnnn2-c2ccccc2)c2nnnn2-c2ccccc2)cc1 | active: 2.51 µM | 
8 | Cc1ccc(NC(=O)CSc2nc3ccc(NC(=O)c4cccs4)cc3s2)c(C)c1 |  | inactive: -9.99% [at 46.1 µM]
9 | COc1cc(/C=N/OCC(=O)Nc2ccc(OC(F)F)cc2)ccc1OCc1ccccc1 | inconclusive: 8.2 µM [inhibitor, partial curve, poor fit] | 
10 | Cc1ccc(S(=O)(=O)NC2c3cccc4cccc(c34)C2Sc2ncccn2)cc1 (stereo unspecified) | inconclusive: 32.6 µM [inhibitor, single point] | 
11 | O=C(OCc1cc(=O)n2c(n1)sc1ccccc12)c1cccc(O)c1 | inconclusive: 20 µM [inhibitor, single point] | 
12 | CN1CC2(Cc3c1ccc1ccccc31)C(=O)OC(C)(C)OC2=O | inconclusive: 12.6 µM [inhibitor, partial curve, poor fit] | 
13 | CSc1nc2sc3c(c2c(=O)n1C)CCCC3 |  | inactive: 1.57%
14 | O=C(c1ccc(Oc2ccc(C(F)(F)F)cc2[N+](=O)[O-])cc1)N1CCOCC1 | inconclusive: 0.708 µM [activator, single point] | 
15 | Cc1ccc(O)c(C2=Nc3ccccc3N=C(c3ccc([N+](=O)[O-])cc3)C2)c1 | inconclusive: 35.5 µM [activator, single point] | 
16 | Cc1ccc(CNC(=O)CCCc2nc3ccccc3s2)cc1 | inconclusive: 10 µM [activator, single point] | 
17 | Cc1ccc(-n2ncc3c(NCc4ccc5c(c4)OCO5)ncnc32)c(C)c1 | inconclusive: 1.64 µM [inhibitor, partial curve, poor fit] | 
18 | CCOc1ncccc1C(=O)Nc1cc(S(=O)(=O)N2CCCCC2)ccc1Cl | inconclusive: 6.31 µM [inhibitor, single point] | 
19 | CC(C)(C)S(=O)(=O)c1ccccc1-c1noc(-c2ccccc2)c1C(N)=O | inconclusive: 7.08 µM [inhibitor, full curve, poor fit] | 
20 | COc1ccccc1CNC(=O)C(=O)NCC1OCCN1S(=O)(=O)c1ccccc1 (stereo unspecified) |  | inactive: 5.23%
21 | CCN(CC)C(CNS(=O)(=O)c1ccc(Cl)cc1)c1ccccc1 (stereo unspecified) |  | inconclusive: 7.11% [activator]

Row | Structure (SMILES) | Potency | activity change, negative = inhibition
22 | COc1ccc(C(=O)NCc2cnn(C)c2C)cc1OC1CCN(C(C)C)CC1 | inconclusive: 0.224 µM [activator, full curve] | 
23 | CC(=O)N1CCN(c2ccc(NC(=O)c3ccco3)cc2Cl)CC1 |  | inactive: -3.8%
24 | Cc1ccc2nc(Cl)c3cc(C(=O)N(C)C4CCCCC4)sc3c2c1 |  | inactive: 1.35% [at 46.1 µM]
25 | COc1cc(C2c3cc4c(cc3OC(NNC(N)=S)C2C)OCO4)cc(OC)c1OC (stereo unspecified) | inconclusive: 1.26 µM [inhibitor, full curve] | 
26 | CC1=CC(=O)Nc2ccccc2S1 | inconclusive: 2.51 µM [activator, partial curve, poor fit] | 
27 | CCN(CC)CCn1c2c(c(SCC(=O)Nc3ccc4c(c3)OCCO4)nc1=O)CCC2 |  | inactive: 20.7%
28 | CCOC(=O)N1CCN(c2nc(-c3cccc(OC)c3)cc(C(F)(F)F)n2)CC1 | inconclusive: 8.2 µM [inhibitor, partial curve] | 
29 | COC(=O)c1c(-c2ccc(C)cc2)csc1NC(=O)C1CC=CCC1C(=O)O (stereo unspecified) | inconclusive: 7.31 µM [activator, partial curve, poor fit] | 
30 | Cc1cc2nn(-c3ccc(F)cc3)nc2cc1NC(=O)c1ccc(OC(C)C)cc1 | inconclusive: 3.55 µM [activator, single point] | 
31 | CCN(CC)c1ccc(C2C3CCCCC3(O)CCN2C(=O)c2cccs2)cc1 (stereo unspecified) | inconclusive: 35.5 µM [inhibitor, single point] | 
32 | Cc1cc(C)n(CC(=O)N/N=C/c2cccs2)n1 | inconclusive: 2.31 µM [activator, full curve, poor fit] | 
33 | COc1ccc(S(=O)(=O)N2CCC(C(=O)N(CC(C)C)C3CCS(=O)(=O)C3)CC2)cc1OC (stereo unspecified) | inconclusive: 22.4 µM [activator, partial curve, poor fit] | 
34 | COc1cccc(C=NNC(=S)NN=Cc2cccc(OC)c2OC)c1OC |  | inactive: -2.26% [at 46.1 µM]
35 | CCCS(=O)(=O)c1ncc(Cl)c(C(=O)Nc2c(C(=O)c3ccccc3)oc3ccccc23)n1 |  | inactive: 11.9% [at 46.1 µM]
36 | CCCCCn1c(NCc2ccccc2OC)nc2ccccc21 |  | inactive: -16% [at 46.1 µM]
37 | Cc1nc2c(-c3ccccc3)c(C)nn2c(C)c1CCC(=O)N1CCN(c2ccccc2)CC1 | inconclusive: 6.31 µM [activator, full curve, poor fit] | 
38 | COC(=O)c1cn[nH]c1NC(=S)Nc1ccccc1C | inconclusive: 18.3 µM [activator, partial curve, poor fit] | 
39 | O=C(N/N=C/c1ccc2c(c1)OCO2)c1cccc(NC(=O)c2ccccc2Cl)c1 | inconclusive: 25.1 µM [inhibitor, single point] | 
40 | CN(C(=O)CCc1ccccc1)c1nnc(-c2ccncc2)s1 | inconclusive: 35.5 µM [inhibitor, partial curve, poor fit] | 
41 | CC(=O)N1CCCc2ccc(NS(=O)(=O)c3ccc(C)c(C)c3)cc21 | inconclusive: 22.4 µM [inhibitor, single point] and inconclusive: 3.55 µM [inhibitor, partial curve, poor fit] | 
